Measurements published in the supplement of paper PMC10849652.
The list shows a part of the results.

Chains of the proteins cited; added tags and fusions are not shown. Lines headed by an entry give the natural chain unless they say otherwise; changes in a name come on top.
UniProt O43847: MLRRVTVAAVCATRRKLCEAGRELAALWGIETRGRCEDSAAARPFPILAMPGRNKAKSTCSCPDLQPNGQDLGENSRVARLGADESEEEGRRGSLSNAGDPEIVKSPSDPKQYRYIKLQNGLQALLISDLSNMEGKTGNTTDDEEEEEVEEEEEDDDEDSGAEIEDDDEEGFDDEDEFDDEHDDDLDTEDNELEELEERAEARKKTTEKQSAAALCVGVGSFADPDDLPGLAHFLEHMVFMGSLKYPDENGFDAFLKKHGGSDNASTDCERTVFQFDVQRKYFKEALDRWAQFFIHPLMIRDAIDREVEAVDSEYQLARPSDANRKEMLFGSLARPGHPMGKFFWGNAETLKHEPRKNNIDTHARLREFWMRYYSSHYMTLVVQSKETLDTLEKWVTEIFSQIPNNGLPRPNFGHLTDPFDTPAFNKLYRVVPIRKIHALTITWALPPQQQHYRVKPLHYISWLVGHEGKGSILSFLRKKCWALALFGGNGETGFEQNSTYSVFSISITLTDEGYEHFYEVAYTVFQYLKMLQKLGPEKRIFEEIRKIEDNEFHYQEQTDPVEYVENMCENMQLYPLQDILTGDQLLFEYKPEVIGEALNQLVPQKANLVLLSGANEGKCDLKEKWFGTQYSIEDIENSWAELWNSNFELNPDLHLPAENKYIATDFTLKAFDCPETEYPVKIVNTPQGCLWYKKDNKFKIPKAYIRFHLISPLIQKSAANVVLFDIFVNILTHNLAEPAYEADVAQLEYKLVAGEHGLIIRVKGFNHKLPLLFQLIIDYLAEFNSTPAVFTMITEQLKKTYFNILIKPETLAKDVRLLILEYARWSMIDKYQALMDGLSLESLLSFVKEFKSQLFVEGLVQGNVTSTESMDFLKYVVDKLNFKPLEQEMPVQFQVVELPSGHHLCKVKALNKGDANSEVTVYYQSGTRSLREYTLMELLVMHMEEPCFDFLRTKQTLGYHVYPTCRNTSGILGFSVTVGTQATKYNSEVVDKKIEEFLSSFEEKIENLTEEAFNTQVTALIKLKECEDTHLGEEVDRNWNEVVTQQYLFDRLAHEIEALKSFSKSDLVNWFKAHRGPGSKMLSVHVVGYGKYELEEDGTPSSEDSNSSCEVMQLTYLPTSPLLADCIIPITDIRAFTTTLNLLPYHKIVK
UniProt Q9HBL8: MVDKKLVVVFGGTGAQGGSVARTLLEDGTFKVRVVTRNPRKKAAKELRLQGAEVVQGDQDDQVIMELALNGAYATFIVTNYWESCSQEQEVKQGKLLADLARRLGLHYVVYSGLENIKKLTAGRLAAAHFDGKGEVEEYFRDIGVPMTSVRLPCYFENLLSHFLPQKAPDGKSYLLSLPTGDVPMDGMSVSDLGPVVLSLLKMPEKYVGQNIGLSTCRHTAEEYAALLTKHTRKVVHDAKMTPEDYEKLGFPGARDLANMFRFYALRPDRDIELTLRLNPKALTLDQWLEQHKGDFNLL
UniProt Q16656: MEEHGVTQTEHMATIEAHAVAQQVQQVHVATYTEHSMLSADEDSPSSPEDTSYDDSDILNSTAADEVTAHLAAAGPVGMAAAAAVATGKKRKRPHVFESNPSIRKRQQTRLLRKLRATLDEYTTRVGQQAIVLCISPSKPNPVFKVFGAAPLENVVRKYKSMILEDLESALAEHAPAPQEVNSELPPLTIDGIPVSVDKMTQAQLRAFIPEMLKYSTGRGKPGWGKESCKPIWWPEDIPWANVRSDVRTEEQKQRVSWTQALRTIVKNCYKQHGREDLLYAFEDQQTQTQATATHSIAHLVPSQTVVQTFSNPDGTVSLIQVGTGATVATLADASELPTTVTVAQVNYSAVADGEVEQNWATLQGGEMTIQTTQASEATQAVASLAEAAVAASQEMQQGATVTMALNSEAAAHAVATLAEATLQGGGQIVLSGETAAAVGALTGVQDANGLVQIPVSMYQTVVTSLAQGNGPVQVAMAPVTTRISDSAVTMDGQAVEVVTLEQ
UniProt Q8TD19: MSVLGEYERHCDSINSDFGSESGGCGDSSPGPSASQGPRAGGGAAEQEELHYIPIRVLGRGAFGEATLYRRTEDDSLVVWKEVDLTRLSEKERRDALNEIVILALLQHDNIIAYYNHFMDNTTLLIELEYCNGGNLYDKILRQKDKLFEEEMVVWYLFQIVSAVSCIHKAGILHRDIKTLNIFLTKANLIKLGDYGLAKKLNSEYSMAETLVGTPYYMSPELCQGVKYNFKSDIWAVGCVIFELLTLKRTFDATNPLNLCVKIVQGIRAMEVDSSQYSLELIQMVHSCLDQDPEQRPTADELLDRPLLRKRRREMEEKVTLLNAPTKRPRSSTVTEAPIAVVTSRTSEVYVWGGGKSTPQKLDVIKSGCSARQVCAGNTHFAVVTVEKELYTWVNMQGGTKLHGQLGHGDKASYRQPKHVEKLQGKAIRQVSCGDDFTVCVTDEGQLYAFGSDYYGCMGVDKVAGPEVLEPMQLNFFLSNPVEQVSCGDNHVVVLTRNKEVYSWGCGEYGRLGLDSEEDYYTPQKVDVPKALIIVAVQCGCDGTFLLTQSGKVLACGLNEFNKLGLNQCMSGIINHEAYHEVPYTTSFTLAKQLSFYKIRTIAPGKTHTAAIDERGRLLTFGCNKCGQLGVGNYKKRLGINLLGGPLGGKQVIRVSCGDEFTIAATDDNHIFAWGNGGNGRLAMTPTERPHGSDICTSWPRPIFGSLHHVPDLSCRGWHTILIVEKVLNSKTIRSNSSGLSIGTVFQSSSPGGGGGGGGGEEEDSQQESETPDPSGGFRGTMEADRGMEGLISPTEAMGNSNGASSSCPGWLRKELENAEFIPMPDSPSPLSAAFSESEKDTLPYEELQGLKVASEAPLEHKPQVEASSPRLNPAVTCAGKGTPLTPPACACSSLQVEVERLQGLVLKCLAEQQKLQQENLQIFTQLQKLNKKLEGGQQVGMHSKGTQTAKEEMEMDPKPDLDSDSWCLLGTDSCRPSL
UniProt Q8IXM6: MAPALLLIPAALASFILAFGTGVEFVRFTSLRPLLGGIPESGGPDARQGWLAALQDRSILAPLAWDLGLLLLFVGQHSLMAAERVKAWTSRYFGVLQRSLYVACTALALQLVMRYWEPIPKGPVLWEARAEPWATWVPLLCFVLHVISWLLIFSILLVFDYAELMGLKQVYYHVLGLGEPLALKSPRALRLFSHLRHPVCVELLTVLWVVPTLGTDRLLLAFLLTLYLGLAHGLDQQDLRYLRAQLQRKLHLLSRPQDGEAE
UniProt P23511, whole entry, looked up: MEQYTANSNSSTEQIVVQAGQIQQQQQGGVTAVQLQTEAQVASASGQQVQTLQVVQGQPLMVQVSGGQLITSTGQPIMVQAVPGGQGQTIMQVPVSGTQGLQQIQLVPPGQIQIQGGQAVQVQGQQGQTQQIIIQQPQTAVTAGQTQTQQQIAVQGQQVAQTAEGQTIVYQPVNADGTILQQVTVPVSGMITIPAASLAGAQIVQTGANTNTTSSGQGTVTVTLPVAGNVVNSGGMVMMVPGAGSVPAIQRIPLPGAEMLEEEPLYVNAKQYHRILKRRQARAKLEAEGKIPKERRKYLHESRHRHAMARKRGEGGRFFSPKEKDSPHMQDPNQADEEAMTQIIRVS
UniProt Q8NCF5: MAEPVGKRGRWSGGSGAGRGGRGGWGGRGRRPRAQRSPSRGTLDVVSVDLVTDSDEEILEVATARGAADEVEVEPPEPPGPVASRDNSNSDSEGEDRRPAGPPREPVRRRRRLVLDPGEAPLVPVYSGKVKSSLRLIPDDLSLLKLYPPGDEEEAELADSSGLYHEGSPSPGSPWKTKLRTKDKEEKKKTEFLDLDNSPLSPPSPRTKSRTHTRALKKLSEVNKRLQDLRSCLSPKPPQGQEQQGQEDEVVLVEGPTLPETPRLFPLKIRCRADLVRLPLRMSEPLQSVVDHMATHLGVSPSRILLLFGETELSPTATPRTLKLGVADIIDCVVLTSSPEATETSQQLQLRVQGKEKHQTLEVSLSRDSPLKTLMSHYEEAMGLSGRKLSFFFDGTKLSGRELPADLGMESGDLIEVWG
UniProt Q13232: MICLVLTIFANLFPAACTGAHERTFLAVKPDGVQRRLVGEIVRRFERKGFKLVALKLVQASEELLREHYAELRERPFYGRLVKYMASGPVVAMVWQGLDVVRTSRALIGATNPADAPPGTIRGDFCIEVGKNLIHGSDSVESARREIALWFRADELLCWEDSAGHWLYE
UniProt P55786: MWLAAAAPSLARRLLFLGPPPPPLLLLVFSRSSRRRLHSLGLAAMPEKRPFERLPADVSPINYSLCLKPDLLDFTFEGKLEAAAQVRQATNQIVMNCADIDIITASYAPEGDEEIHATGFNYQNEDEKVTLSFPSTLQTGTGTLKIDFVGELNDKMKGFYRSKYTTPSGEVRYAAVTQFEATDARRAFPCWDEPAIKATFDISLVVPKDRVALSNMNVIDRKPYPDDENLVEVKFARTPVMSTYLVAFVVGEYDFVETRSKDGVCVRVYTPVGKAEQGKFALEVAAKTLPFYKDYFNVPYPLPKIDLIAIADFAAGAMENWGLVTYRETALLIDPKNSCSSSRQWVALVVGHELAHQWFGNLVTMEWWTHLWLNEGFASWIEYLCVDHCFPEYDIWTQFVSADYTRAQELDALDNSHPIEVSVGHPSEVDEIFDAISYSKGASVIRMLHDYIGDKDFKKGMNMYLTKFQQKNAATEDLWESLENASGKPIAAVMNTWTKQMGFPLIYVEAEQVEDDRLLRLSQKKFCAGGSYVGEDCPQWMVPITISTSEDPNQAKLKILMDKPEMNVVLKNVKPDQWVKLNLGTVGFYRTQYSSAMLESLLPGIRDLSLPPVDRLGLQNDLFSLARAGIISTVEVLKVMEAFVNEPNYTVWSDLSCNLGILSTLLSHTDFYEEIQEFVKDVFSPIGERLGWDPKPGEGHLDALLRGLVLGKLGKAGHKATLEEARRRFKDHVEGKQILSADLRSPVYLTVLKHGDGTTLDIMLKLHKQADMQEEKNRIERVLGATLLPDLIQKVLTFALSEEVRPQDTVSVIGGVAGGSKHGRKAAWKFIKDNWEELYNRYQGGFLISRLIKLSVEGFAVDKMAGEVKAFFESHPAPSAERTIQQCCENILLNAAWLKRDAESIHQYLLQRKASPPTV
UniProt P08651, whole entry, looked up: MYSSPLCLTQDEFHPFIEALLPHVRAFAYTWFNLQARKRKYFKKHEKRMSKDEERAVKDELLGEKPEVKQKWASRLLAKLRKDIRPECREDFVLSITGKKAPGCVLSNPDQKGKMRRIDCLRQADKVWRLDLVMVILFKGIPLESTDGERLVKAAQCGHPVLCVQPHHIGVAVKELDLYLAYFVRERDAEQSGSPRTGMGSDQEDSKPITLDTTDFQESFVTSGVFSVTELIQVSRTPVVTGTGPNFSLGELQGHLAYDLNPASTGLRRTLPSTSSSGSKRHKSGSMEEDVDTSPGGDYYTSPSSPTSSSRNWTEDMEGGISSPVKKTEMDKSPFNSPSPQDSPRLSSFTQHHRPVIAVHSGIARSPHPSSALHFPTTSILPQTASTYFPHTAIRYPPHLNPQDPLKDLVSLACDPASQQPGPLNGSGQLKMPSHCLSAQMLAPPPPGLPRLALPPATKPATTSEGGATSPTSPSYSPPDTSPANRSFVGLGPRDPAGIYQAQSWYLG
UniProt Q8NC60: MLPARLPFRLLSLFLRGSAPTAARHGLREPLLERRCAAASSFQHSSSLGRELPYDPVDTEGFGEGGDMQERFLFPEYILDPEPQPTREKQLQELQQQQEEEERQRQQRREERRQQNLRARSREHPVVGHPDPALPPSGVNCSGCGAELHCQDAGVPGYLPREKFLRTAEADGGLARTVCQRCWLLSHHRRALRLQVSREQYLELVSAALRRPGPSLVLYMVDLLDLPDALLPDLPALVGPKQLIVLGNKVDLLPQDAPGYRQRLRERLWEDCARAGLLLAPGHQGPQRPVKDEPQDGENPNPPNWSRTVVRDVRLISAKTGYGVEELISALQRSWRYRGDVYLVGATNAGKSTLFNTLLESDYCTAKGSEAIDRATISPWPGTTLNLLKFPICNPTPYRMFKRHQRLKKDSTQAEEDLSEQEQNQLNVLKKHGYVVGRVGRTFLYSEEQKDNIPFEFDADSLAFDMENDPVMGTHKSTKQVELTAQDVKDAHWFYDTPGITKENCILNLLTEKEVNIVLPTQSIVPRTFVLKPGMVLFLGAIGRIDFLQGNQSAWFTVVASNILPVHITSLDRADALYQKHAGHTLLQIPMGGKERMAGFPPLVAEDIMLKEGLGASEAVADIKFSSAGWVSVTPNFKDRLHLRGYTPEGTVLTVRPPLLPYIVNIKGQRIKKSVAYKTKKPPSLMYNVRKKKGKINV
UniProt Q9UFN0: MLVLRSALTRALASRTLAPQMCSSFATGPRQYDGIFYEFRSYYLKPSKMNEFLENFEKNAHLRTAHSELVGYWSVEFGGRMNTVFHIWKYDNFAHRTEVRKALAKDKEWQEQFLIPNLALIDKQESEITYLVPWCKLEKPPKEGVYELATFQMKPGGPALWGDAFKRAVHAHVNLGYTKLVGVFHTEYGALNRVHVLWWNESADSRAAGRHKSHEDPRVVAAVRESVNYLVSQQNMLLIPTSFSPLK

Columns and labels:
Assay in all cases: log2 fold change, soluble protein after heating vs DMSO (PISA); higher = thermal stabilisation; K562 cells, 10 uM, 30 min; active = over 0.2 and 3.5 SD of the protein, either way, in both replicates (recomputed)
[1] = compound: NC(=O)Nc1cc(-c2cccc(F)c2)sc1C(=O)N[C@H]1CCCNC1
Outline: (§1)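 Values are thermal stability changes relative to control samples and are taken from duplicates. They are stated as log2 fold changes. Before quantification by TMTpro 16plex LC-MS/MS with equalised channel sums, K562 cells at 2×10^6 cells/mL were treated with 10 μM compound for 30 min, heated in aliquots for 3 min across 48°C-58°C, pooled, extracted in PBS with 0.5% NP-40 at 4°C, and centrifuged at 21,000xg for 90 min to give the soluble supernatant.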

[2] = compound: NC(=O)c1cnc(N[C@@H]2CCCC[C@@H]2N)nc1Nc1cccc(-n2nccn2)c1
Outline: as §1

[3] = compound: NC1(c2ccc(-c3nc4ccn5c(=O)[nH]nc5c4cc3-c3ccccc3)cc2)CCC1
Outline: as §1

[4] = compound: NCC(=O)Nc1ccc(-n2nc(C(F)(F)F)cc2-c2ccc3c(ccc4ccccc43)c2)cc1
Outline: as §1

entinostat = compound: Nc1ccccc1NC(=O)c1ccc(CNC(=O)OCc2cccnc2)cc1 [entinostat]
Outline: as §1

vorinostat = compound: O=C(CCCCCCC(=O)Nc1ccccc1)NO [vorinostat]
Outline: as §1

citarinostat = compound: O=C(CCCCCCNC(=O)c1cnc(N(c2ccccc2)c2ccccc2Cl)nc1)NO [citarinostat]
Outline: as §1

silmitasertib = compound: O=C(O)c1ccc2c(c1)nc(Nc1cccc(Cl)c1)c1ccncc12 [silmitasertib]
Outline: as §1

[5] = compound: O=C1NC(=O)C(c2cnc3ccccn23)=C1c1cn2c3c(cc(F)cc13)CN(C(=O)N1CCCCC1)CC2
Outline: as §1

[6] = compound: c1cc(OCCN2CCCCC2)cc(-c2n[nH]c3ccc(-c4nnc[nH]4)cc23)c1
Outline: as §1

entospletinib = compound: c1cn2cc(-c3ccc4cn[nH]c4c3)nc(Nc3ccc(N4CCOCC4)cc3)c2n1 [entospletinib]
Outline: as §1

Measured: log2 fold change

NRDC isoform 2 (UniProt O43847)
inactive: [1] -0.01 | [2] -0.044 | [3] -0.057 | [4] -0.036 | entinostat 0.043 | vorinostat 0.04 | citarinostat 0.024 | silmitasertib 0.025 | [5] -0.05 | [6] -0.06

NNT (UniProt Q13423)
inactive: [1] -0.007 | [2] -0.037 | [3] -0.062 | [4] -0.029 | entinostat 0.006 | vorinostat 0.025 | citarinostat 0.018 | silmitasertib -0.027 | [5] -0.041 | [6] 0.024

NSDHL (UniProt Q15738)
inactive: [1] -0.14 | [2] -0.061 | [3] 0.11 | [4] -0.033 | entinostat -0.018 | vorinostat -0.04 | citarinostat 0.023 | silmitasertib -0.023 | [5] -0.027 | [6] 0.02

NISCH (UniProt Q9Y2I1)
inactive: [1] -0.052 | [2] -0.293 | [3] -0.354 | [4] -0.168 | entinostat 0.101 | vorinostat 0.09 | citarinostat 0.023 | silmitasertib 0.065 | [5] 0.081 | [6] -0.147

NMRAL1 (UniProt Q9HBL8)
active: [2] 1.06
inactive: [1] 0.391 | [3] 0.717 | [4] -0.16 | entinostat -0.052 | vorinostat -0.139 | citarinostat -0.151 | silmitasertib 0.018 | [5] -0.005 | [6] 0.374

NPC1 (UniProt O15118)
inactive: [1] 0.002 | [2] 0.039 | [3] -0.196 | [4] -0.017 | entinostat -0.049 | vorinostat 0.004 | citarinostat 0.017 | silmitasertib 0.031 | [5] 0.027 | [6] -0.106

NRF1 isoform 4 (UniProt Q16656)
inactive: [1] 0.021 | [2] -0.088 | [3] -0.129 | [4] -0.037 | entinostat 0.056 | vorinostat 0.047 | citarinostat 0.039 | silmitasertib -0.02 | [5] -0.064 | [6] 0.04

NIPSNAP2 (UniProt O75323)
inactive: [1] -0.084 | [2] -0.047 | [3] -0.004 | [4] -0.033 | entinostat 0.027 | vorinostat -0.016 | citarinostat -0.021 | silmitasertib -0.039 | [5] -0.179 | [6] 0.023

2 records drawn at random from the list so far, as already listed:
NISCH (UniProt Q9Y2I1)
inactive: [1] -0.052 | [2] -0.293 | [3] -0.354 | [4] -0.168 | entinostat 0.101 | vorinostat 0.09 | citarinostat 0.023 | silmitasertib 0.065 | [5] 0.081 | [6] -0.147

NRF1 isoform 4 (UniProt Q16656)
inactive: [1] 0.021 | [2] -0.088 | [3] -0.129 | [4] -0.037 | entinostat 0.056 | vorinostat 0.047 | citarinostat 0.039 | silmitasertib -0.02 | [5] -0.064 | [6] 0.04

(cont.)

NEK9 (UniProt Q8TD19)
inactive: [1] -0.024 | [2] -0.041 | [3] -0.096 | [4] -0.02 | entinostat 0.006 | vorinostat 0.057 | citarinostat -0.001 | silmitasertib -0.003 | [5] -0.01 | [6] -0.011 | entospletinib 0.045

NRM (UniProt Q8IXM6)
inactive: [1] 0.004 | [2] -0.034 | [3] -0.07 | [4] 0.152 | entinostat -0.049 | vorinostat 0.12 | citarinostat 0.058 | silmitasertib 0.026 | [5] 0.095 | [6] -0.073 | entospletinib -0.019

NFYA (UniProt P23511)
inactive: [1] -0.263 | [2] -0.083 | [3] -0.016 | [4] 0.054 | entinostat -0.331 | vorinostat 0.057 | citarinostat -0.006 | silmitasertib -0.006 | [5] -0.048 | [6] -0.056 | entospletinib -0.036

NFAT5 isoform 5 (UniProt O94916)
inactive: [1] -0.085 | [2] 0.299 | [3] -0.165 | [4] 0.072 | entinostat -0.029 | vorinostat -0.051 | citarinostat 0 | silmitasertib -0.045 | [5] 0.153 | [6] -0.078 | entospletinib -0.012

NEK3 (UniProt P51956)
inactive: [1] 0.09 | [2] 0.156 | [3] -0.119 | [4] 0.011 | entinostat 0.016 | vorinostat -0.256 | citarinostat 0.099 | silmitasertib 0.043 | [5] -0.017 | [6] -0.063

NIT1 (UniProt Q86X76)
inactive: [1] 0 | [2] 0.005 | [3] 0.04 | [4] -0.006 | entinostat -0.017 | vorinostat 0.009 | citarinostat 0.036 | silmitasertib 0.047 | [5] -0.056 | [6] -0.035 | entospletinib 0.013

NFATC2IP (UniProt Q8NCF5)
inactive: [1] -0.016 | [2] -0.017 | [3] -0.087 | [4] -0.011 | entinostat 0.035 | vorinostat 0.078 | citarinostat 0.075 | silmitasertib -0.017 | [5] 0.02 | [6] -0.011

NME3 (UniProt Q13232)
inactive: [1] -0.003 | [2] -0.051 | [3] -0.048 | [4] 0.037 | entinostat -0.064 | vorinostat -0.006 | citarinostat 0.003 | silmitasertib 0.008 | [5] -0.009 | [6] 0.028 | entospletinib 0.004

NPEPPS (UniProt P55786)
inactive: [1] -0.02 | [2] -0.035 | [3] -0.046 | [4] -0.041 | entinostat -0.007 | vorinostat 0.076 | citarinostat 0.048 | silmitasertib -0.038 | [5] -0.003 | [6] -0.03

NFIC (UniProt P08651)
inactive: [1] -0.06 | [2] 0.009 | [3] 0.092 | [4] 0.036 | entinostat -0.159 | vorinostat 0.007 | citarinostat -0.083 | silmitasertib 0.089 | [5] 0.021 | [6] -0.064 | entospletinib 0.058

NOP53 (UniProt Q9NZM5)
inactive: [1] 0.054 | [2] 0.201 | [3] 0.353 | [4] 0.258 | entinostat -0.141 | vorinostat -0.051 | citarinostat -0.063 | silmitasertib 0.256 | [5] 0.285 | [6] -0.152

NOA1 (UniProt Q8NC60)
inactive: [1] -0.054 | [2] -0.17 | [3] 0.042 | [4] -0.159 | entinostat -0.07 | vorinostat 0.033 | citarinostat 0.065 | silmitasertib 0.022 | [5] 0.141 | [6] -0.082 | entospletinib -0.093

NFXL1 (UniProt Q6ZNB6)
inactive: [1] -0.034 | [2] -0.038 | [3] 0.076 | [4] -0.087 | entinostat -0.005 | vorinostat -0.038 | citarinostat -0.005 | silmitasertib 0.046 | [5] -0.062 | [6] -0.001 | entospletinib -0.014

NGRN (UniProt Q9NPE2)
inactive: [1] -0.096 | [2] 0.025 | [3] 0.005 | [4] -0.001 | entinostat -0.027 | vorinostat -0.006 | citarinostat 0.009 | silmitasertib 0.14 | [5] 0.115 | [6] -0.032 | entospletinib 0

NOMO2 (UniProt Q5JPE7)
inactive: [1] 0.034 | [2] -0.03 | [3] -0.061 | [4] 0.006 | entinostat 0.021 | vorinostat 0.048 | citarinostat 0.047 | silmitasertib 0.01 | [5] 0.017 | [6] -0.056 | entospletinib -0.023

NIPSNAP3A (UniProt Q9UFN0)
inactive: [1] 0.028 | [2] 0.049 | [3] -0.056 | [4] -0.016 | entinostat -0.01 | vorinostat -0.099 | citarinostat 0.051 | silmitasertib -0.006 | [5] -0.026 | [6] -0.045 | entospletinib -0.051

NPL (UniProt Q9BXD5)
inactive: [1] -0.111 | [2] 0.005 | [3] 0.001 | [4] -0.05 | entinostat -0.161 | vorinostat 0.018 | citarinostat -0.007 | silmitasertib 0.033 | [5] -0.071 | [6] -0.022 | entospletinib -0.052

NES (UniProt P48681)
inactive: [1] 0.072 | [2] -0.034 | [3] 0.007 | [4] 0.165 | entinostat 0.084 | vorinostat -0.044 | citarinostat -0.123 | silmitasertib 0.124 | [5] 0.029 | [6] -0.353 | entospletinib 0.076

NFKBIE (UniProt O00221)
inactive: [1] 0.051 | [2] 0.052 | [3] -0.043 | [4] -0.073 | entinostat 0.087 | vorinostat 0.035 | citarinostat 0.008 | silmitasertib -0.04 | [5] -0.066 | [6] -0.019 | entospletinib 0.016

NR2F6 (UniProt P10588)
inactive: [1] 0.048 | [2] 0.016 | [3] -0.049 | [4] -0.019 | entinostat 0.058 | vorinostat -0.107 | citarinostat 0.297 | silmitasertib 0.063 | [5] 0.04 | [6] -0.016 | entospletinib -0.082
